In assay [1] the target is T1, Isoform 1 of zinc finger CCCH domain–containing protein 14 (mouse (endogenous in Ht22)) (UniProt Q8BJ05).
T1 sequence: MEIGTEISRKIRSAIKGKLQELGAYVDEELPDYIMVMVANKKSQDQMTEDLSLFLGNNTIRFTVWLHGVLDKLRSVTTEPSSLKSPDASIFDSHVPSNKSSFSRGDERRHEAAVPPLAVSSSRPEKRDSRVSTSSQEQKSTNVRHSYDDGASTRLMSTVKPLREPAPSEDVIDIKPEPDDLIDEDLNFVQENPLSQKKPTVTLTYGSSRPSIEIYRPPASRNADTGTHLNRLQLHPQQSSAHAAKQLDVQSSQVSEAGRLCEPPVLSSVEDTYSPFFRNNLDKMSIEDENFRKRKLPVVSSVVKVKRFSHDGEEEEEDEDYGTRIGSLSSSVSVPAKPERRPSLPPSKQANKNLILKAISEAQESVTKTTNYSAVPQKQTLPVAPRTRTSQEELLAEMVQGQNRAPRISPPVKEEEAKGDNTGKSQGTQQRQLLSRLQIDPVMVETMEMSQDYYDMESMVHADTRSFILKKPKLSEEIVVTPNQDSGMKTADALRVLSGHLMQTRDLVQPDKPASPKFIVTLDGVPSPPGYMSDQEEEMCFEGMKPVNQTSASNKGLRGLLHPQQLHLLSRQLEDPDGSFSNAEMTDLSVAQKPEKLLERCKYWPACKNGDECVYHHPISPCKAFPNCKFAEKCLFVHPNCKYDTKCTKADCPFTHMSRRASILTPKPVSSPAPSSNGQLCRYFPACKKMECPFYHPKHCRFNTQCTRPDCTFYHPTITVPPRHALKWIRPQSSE
Description: co-IP; reverse: ZC3H14 isoform 1 captured with ab169061 (Abcam) from Ht22 lysates, blot for PI3K p85.

Protein sequences, listed by entry. Tags and fused reporters are not part of them.
UniProt P26450: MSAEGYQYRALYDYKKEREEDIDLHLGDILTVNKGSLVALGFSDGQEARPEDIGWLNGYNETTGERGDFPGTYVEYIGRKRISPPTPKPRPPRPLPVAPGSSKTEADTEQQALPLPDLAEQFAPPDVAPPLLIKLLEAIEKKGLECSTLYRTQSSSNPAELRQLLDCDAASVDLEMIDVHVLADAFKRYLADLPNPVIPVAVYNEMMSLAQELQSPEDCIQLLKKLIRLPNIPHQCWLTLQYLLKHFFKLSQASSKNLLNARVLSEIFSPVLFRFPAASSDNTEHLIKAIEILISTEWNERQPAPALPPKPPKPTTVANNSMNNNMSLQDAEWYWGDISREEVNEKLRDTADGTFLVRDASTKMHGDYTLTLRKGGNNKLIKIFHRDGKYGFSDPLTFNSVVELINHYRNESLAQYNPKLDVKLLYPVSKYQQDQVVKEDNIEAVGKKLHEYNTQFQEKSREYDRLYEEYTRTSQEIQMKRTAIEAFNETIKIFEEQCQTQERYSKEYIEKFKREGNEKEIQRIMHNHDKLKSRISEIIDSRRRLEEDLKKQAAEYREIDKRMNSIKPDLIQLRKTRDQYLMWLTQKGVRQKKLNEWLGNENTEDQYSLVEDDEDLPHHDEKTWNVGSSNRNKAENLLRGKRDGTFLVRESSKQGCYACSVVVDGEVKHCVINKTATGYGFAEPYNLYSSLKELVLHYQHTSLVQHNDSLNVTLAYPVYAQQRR

Assay [2] deals with Phosphatidylinositol 3-kinase (PI3K) regulatory subunit alpha (mouse (endogenous in Ht22)) (UniProt P26450). The experiment in a line: co-IP; PI3K p85 captured with CST 4257 from Ht22 lysates, blot for ZC3H14; same protocol as the interactome IP; also after 20 ng/ml PDGFbb or vehicle (more ZC3H14 eluted with PDGFbb).

These are yes or no findings as the source states them, for the method shown. Binding seen in cells or lysates may run through a third protein. Some entries that bind do so weakly or less than the wild type.

We go through two molecules from publication PMC7948738.

For “Phosphatidylinositol 3-kinase (PI3K) regulatory subunit alpha (from UniProt P26450 1-724)”, the binding result in assay [1] is reported as “binds”.

B1: Isoform 1 of zinc finger CCCH domain–containing protein 14 (protein, UniProt Q8BJ05 1-735)
chain: MEIGTEISRKIRSAIKGKLQELGAYVDEELPDYIMVMVANKKSQDQMTEDLSLFLGNNTIRFTVWLHGVLDKLRSVTTEPSSLKSPDASIFDSHVPSNKSSFSRGDERRHEAAVPPLAVSSSRPEKRDSRVSTSSQEQKSTNVRHSYDDGASTRLMSTVKPLREPAPSEDVIDIKPEPDDLIDEDLNFVQENPLSQKKPTVTLTYGSSRPSIEIYRPPASRNADTGTHLNRLQLHPQQSSAHAAKQLDVQSSQVSEAGRLCEPPVLSSVEDTYSPFFRNNLDKMSIEDENFRKRKLPVVSSVVKVKRFSHDGEEEEEDEDYGTRIGSLSSSVSVPAKPERRPSLPPSKQANKNLILKAISEAQESVTKTTNYSAVPQKQTLPVAPRTRTSQEELLAEMVQGQNRAPRISPPVKEEEAKGDNTGKSQGTQQRQLLSRLQIDPVMVETMEMSQDYYDMESMVHADTRSFILKKPKLSEEIVVTPNQDSGMKTADALRVLSGHLMQTRDLVQPDKPASPKFIVTLDGVPSPPGYMSDQEEEMCFEGMKPVNQTSASNKGLRGLLHPQQLHLLSRQLEDPDGSFSNAEMTDLSVAQKPEKLLERCKYWPACKNGDECVYHHPISPCKAFPNCKFAEKCLFVHPNCKYDTKCTKADCPFTHMSRRASILTPKPVSSPAPSSNGQLCRYFPACKKMECPFYHPKHCRFNTQCTRPDCTFYHPTITVPPRHALKWIRPQSSE
As for B1, in assay [2], the binding result is listed as “binds”.
